Construct, isoform or probe ends are uncertain for at least one entry. Negatives hold for the conditions tested. For some assays here: Tags and fusion partners may be left off the protein sequences shown.

Chains of the proteins cited; added tags and fusions are not shown.
UniProt R4SEZ2, entry or part of it: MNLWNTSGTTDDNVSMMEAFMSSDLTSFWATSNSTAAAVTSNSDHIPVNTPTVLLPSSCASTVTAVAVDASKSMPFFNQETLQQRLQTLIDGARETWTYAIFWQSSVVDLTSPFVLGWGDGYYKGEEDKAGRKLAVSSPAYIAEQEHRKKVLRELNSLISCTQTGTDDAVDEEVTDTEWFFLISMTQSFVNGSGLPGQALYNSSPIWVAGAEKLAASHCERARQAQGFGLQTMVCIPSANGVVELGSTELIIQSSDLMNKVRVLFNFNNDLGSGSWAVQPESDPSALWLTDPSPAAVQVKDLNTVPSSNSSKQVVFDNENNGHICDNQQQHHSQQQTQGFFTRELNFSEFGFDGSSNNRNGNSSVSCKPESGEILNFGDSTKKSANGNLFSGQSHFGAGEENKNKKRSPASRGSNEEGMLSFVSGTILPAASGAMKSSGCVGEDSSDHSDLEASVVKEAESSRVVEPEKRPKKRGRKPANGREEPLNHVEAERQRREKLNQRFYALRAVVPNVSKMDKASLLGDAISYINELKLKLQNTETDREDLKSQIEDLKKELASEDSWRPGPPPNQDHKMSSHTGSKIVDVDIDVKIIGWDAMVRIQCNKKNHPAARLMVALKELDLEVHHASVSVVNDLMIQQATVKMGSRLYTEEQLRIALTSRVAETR
UniProt R4S7B4, entry or part of it: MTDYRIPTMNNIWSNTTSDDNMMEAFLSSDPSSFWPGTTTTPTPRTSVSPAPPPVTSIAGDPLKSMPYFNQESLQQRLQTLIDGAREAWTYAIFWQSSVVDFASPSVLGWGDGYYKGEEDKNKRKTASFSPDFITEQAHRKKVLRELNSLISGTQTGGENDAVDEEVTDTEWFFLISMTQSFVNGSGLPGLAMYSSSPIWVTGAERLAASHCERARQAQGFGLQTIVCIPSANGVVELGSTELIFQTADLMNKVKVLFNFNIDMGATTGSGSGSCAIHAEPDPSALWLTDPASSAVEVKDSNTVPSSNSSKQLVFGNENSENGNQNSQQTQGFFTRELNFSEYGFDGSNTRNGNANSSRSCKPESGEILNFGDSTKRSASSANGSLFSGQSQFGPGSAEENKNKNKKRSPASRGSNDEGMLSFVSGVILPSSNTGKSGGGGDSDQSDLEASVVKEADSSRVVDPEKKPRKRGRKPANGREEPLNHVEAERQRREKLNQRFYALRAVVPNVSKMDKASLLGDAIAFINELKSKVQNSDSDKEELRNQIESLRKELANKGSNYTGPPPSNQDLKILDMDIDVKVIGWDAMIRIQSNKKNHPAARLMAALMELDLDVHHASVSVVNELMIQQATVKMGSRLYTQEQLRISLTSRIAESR

Common to all, as to experiment: EMSA
Data set [1] deals with T1, NaWRKY70 (Nicotiana attenuata) (UniProt A0A1J6IGI0).
T1 sequence (looked up, limits assumed): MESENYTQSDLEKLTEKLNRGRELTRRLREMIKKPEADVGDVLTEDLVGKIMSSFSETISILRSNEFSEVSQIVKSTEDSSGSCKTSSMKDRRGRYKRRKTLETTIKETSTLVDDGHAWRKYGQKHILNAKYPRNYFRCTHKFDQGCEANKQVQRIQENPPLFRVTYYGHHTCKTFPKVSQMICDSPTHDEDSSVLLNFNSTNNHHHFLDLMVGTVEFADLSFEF
The following applies: Chemiluminescence EMSA kit (Beyotime), manufacturer's protocol, pH and temperature not stated, recombinant protein, protein details: GST (pGEX-4T-1), label: biotin. (In general: A gel shift assay detects complexes by their altered migration in electrophoresis.)

The target of data set [2] is NaMYC2b (Nicotiana attenuata) (UniProt R4SEZ2). The conditions noted are these: Chemiluminescence EMSA kit (Beyotime), manufacturer's protocol; pH and temperature not stated; recombinant protein; residues 1-666; protein details: GST (pGEX-4T-1); label: biotin.
Data set [3] addresses NaMYC2a (Nicotiana attenuata) (UniProt R4S7B4). The following applies: Chemiluminescence EMSA kit (Beyotime), manufacturer's protocol; pH and temperature not stated; recombinant protein; residues 1-656; protein details: GST (pGEX-4T-1); label: biotin.

“ACGTATATATGGTCACAGAAATTTAA (double strand) [NaF6'H1 Probe3]”: in data set [1], the binding result is reported as “no binding”. With “AGGCTGACAACATATGAATAACGTCA (double strand) [NaMYC-NaWRKY70-Probe2]”, the binding result in data set [2] and in data set [3] was “no binding” throughout. “GGTCTCTTTAGGTCAACCAACTATTC (double strand) [NaF6'H1 Probe1]”: the binding result in data set [1] (attenuated by 50x, abolished by 200x unlabeled probe) is “binds”.

For “GTTTCATGGCATGACAATTGCCTATA (double strand) [NaF6'H1 Probe5]”, the binding result in data set [1] was “no binding”.

As to “TTAATCCCAACAAGTGGGGTATGGGG (double strand) [NaMYC-NaWRKY70-Probe1]”, the binding result in data set [2] and in data set [3] was “no binding” throughout. Regarding “TTACAAATTGCATGTGAAATTCTGTG (double strand) [NaMYC-NaWRKY70-Probe3]”, the binding result in data set [2] and in data set [3] was “no binding” in each case. Consider “TTTCAAGGCAGTGACTTGCAACTATA (double strand) [NaF6'H1 Probe4]”, for which, in data set [1], the binding result was “no binding”. In the case of “TTTTGCACTCAGTCAGGCTAAAATCG (double strand) [NaF6'H1 Probe2]”, the binding result in data set [1] is recorded as “no binding”.

The record behind these values is PMC10837013.
